PubChem BioAssay AID1259425 – University of Nebraska Medical Center | 2018
This is one part, drawn at random, of about 14,000 reagents tested. Further read-outs or replicates are left out here. The record does not give: the time to read-out.

- Screen: 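Seek colon cancer weak points whose silencing resembles KSR1 loss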 (primary screen)
- Cells: HCT116 human colon cancer cells
- Knock-down reagent: siRNA pool against human genes, 50 nM siRNA
- Read-out: 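mRNA of six signature genes measured together by branched-DNA assay after 50 nM siRNA pool, blank removed, divided by geometric mean of two housekeeping genes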
- Reading the numbers: BNIP3L mRNA: higher = more BNIP3L transcript after knockdown; NDRG1 mRNA: higher = more NDRG1 transcript after knockdown; BNIP3 mRNA: higher = more BNIP3 transcript after knockdown

gene knocked down | BNIP3L mRNA, set 1 | NDRG1 mRNA, set 1 | BNIP3 mRNA, set 1
ZNF394 (GeneID 84124) | 0.382 | 0.329 | 0.377
RBBP5 (GeneID 5929) | 0.0651 | 0.101 | 0.326
ABCB8 (GeneID 11194) | 0.108 | 0.513 | 0.232
MMAA (GeneID 166785) | 0.136 | 0.157 | 0.365
TFDP2 (GeneID 7029) | 0.099 | 0.145 | 0.279
GPANK1 (GeneID 7918) | 0.0342 | 0.12 | 0.17
CEP68 (GeneID 23177) | 0.106 | 0.113 | 0.408
OR5V1 (GeneID 81696) | 0.241 | 0.397 | 0.363
ERVW-1 (GeneID 30816) | 0.138 | 0.197 | 0.274
CAMTA1 (GeneID 23261) | 0.0949 | 0.229 | 0.436
MMP8 (GeneID 4317) | 0.0711 | 0.135 | 0.12
CORIN (GeneID 10699) | 0.211 | 0.276 | 0.31
MATN4 (GeneID 8785) | 0.234 | 0.0363 | 0.358
SELENOO (GeneID 83642) | 0.161 | 0.345 | 0.273
DAAM2 (GeneID 23500) | 0.0654 | 0.0864 | 0.24
OR2M4 (GeneID 26245) | 0.0755 | 0.109 | 0.228
ZNF189 (GeneID 7743) | 0.132 | 0.197 | 0.299
AQP5 (GeneID 362) | 0.086 | 0.195 | 0.278
BCL2L13 (GeneID 23786) | 0.0789 | 0.0714 | 0.253
TPI1 (GeneID 7167) | 0.0673 | 0.127 | 0.26
CEP85 (GeneID 64793) | 0.0581 | 0.116 | 0.247
PER1 (GeneID 5187) | 0.138 | 0.909 | 0.327

Reformatted: entries from further up.
gene knocked down,"BNIP3L mRNA, set 1","NDRG1 mRNA, set 1","BNIP3 mRNA, set 1"
TFDP2 (GeneID 7029),0.099,0.145,0.279
GPANK1 (GeneID 7918),0.0342,0.12,0.17
CEP68 (GeneID 23177),0.106,0.113,0.408
OR5V1 (GeneID 81696),0.241,0.397,0.363
ERVW-1 (GeneID 30816),0.138,0.197,0.274
CAMTA1 (GeneID 23261),0.0949,0.229,0.436
MMP8 (GeneID 4317),0.0711,0.135,0.12

Next results:
gene knocked down | BNIP3L mRNA, set 1 | NDRG1 mRNA, set 1 | BNIP3 mRNA, set 1
PSMA6 (GeneID 5687) | 0.612 | 1.17 | 0.508
GFER (GeneID 2671) | 0.192 | 0.409 | 0.555
NDUFA6 (GeneID 4700) | 0.14 | 0.106 | 0.227
RAB23 (GeneID 51715) | 0.149 | 0.221 | 0.407
ZNF415 (GeneID 55786) | 0.0698 | 0.0731 | 0.239
MAGEH1 (GeneID 28986) | 0.163 | 0.222 | 0.366
XYLT1 (GeneID 64131) | 0.123 | 0.12 | 0.499
HIC1 (GeneID 3090) | 0.101 | 0.241 | 0.47
ZNF271P (GeneID 10778) | 0.0755 | 0.144 | 0.25
ALKBH1 (GeneID 8846) | 0.141 | 0.11 | 0.371
ZIM2 (GeneID 23619) | 0.076 | 0.133 | 0.412
MYPN (GeneID 84665) | 0.12 | 0.0697 | 0.283
CIDEC (GeneID 63924) | 0.0324 | 0.117 | 0.297
CACNA1G (GeneID 8913) | 0.109 | 0.332 | 0.384
KIF1C (GeneID 10749) | 0.19 | 0.199 | 0.21
GZF1 (GeneID 64412) | 0.0906 | 0.388 | 0.27
KCNMB1 (GeneID 3779) | 0.093 | 0.133 | 0.348
HCRT (GeneID 3060) | 0.125 | 0.112 | 0.206
HIRA (GeneID 7290) | 0.108 | 0.369 | 0.388
SARS1 (GeneID 6301) | 0.0563 | 0.175 | 0.195
TXNRD3 (GeneID 114112) | 0.091 | 0.0758 | 0.26
UBE2A (GeneID 7319) | 0.0988 | 0.151 | 0.332
KLF10 (GeneID 7071) | 0.143 | 0.584 | 0.423
COQ8A (GeneID 56997) | 0.148 | 0.0336 | 0.472
UQCRFS1 (GeneID 7386) | 0.0898 | 0.232 | 0.317
ADPRHL1 (GeneID 113622) | 0.131 | 0.259 | 0.35
ADAMTSL2 (GeneID 9719) | 0.193 | 0.356 | 0.524
GRAP (GeneID 10750) | 0.0703 | 0.272 | 0.284
